No constants are given. Whether binding was seen depends on the method and setting. In cells and extracts the contact can be indirect. Here binding means that the protein was enriched with, or labelled near, the bait; the list need not be complete. Tags and fused reporters may be left off the sequences shown.
biological target: T1, GFP-tagged SUSD4 (mouse) (UniProt Q8BH32); experiment: affinity purification with mass spectrometry
T1 sequence: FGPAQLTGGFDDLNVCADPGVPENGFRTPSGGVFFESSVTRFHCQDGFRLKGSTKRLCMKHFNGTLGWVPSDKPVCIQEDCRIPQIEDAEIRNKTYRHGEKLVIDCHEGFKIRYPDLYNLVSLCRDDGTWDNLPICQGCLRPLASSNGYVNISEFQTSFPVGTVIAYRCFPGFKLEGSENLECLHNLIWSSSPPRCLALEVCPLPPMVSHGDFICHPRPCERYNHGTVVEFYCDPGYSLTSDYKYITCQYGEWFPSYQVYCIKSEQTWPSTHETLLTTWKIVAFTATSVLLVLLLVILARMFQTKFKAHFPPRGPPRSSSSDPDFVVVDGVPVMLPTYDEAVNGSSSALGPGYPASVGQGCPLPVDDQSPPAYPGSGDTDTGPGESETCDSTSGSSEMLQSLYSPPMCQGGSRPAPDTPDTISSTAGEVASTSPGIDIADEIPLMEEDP

Amino acid sequences for entries named in this document (tags omitted).
UniProt Q8C863: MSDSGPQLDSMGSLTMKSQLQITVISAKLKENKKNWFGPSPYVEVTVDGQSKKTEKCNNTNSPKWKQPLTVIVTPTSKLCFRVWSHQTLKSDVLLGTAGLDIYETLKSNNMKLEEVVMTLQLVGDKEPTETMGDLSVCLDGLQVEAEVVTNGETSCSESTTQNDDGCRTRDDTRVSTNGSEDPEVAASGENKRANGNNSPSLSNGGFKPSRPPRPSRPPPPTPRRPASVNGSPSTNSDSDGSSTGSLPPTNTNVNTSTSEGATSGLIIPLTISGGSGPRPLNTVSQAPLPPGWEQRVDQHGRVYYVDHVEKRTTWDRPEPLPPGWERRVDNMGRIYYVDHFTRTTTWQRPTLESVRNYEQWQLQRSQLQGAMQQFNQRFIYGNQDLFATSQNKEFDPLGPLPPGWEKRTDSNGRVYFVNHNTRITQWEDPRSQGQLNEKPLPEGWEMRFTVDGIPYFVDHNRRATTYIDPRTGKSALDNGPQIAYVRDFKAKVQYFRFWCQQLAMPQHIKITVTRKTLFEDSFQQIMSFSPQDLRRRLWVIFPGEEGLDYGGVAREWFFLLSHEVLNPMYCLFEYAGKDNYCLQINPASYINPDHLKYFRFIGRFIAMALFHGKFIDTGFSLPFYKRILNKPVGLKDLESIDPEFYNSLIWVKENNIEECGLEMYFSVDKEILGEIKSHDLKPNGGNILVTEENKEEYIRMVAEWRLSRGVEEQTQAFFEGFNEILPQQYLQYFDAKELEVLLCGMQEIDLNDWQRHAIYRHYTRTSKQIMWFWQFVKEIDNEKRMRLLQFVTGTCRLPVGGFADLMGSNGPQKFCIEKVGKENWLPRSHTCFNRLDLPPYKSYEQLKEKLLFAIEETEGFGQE
UniProt Q8CFI0: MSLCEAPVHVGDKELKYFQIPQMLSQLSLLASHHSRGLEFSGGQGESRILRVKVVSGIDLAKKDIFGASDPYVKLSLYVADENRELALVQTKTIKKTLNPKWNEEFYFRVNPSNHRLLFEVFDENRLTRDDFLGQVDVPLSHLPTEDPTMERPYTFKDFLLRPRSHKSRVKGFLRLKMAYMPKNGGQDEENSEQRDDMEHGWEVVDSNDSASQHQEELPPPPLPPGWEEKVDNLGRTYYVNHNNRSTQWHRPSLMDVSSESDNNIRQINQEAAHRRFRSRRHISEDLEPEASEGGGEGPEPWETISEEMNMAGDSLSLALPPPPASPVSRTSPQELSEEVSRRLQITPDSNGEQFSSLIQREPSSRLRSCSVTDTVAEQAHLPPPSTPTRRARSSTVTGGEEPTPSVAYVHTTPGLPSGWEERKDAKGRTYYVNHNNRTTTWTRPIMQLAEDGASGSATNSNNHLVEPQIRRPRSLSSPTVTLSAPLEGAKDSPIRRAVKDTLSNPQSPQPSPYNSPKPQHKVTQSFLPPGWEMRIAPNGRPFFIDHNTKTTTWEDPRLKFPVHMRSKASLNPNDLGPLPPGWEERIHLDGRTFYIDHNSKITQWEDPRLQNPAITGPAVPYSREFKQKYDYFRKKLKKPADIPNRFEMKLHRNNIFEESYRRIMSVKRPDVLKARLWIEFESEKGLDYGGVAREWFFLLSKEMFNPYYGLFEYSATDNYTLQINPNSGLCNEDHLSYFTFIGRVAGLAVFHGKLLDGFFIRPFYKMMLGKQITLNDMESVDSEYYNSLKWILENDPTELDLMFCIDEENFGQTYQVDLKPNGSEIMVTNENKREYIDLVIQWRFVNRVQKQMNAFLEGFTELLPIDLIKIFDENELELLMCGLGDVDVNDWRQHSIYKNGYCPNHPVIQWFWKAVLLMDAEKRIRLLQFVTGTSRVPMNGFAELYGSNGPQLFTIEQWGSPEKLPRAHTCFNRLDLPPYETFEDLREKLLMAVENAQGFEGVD

binding, binds:
ITCH (from UniProt Q8C863 1-864) (enzyme), NEDD4L (from UniProt Q8CFI0 1-1004) (enzyme), WWP1 (from UniProt Q8BZZ3 1-918) (enzyme)
